# Laboratory results published in the supplement of paper PMC8728848.
# This is one part of the list.
# B1: Clec18Av1 (Homo sapiens), A5D8T8 (protein)
# chain: MLHPETSPGRGHLLAVLLALLGTAWAEVWPPQLQEQAPMAGALNRKESFLLLSLHNRLRSWVQPPAADMRRLDWSDSLAQLAQARAALCGTPTPSLASGLWRTLQVGWNMQLLPAGLVSFVEVVSLWFAEGQRYSHAAGECARNATCTHYTQLVWATSSQLGCGRHLCSAGQAAIEAFVCAYSPRGNWEVNGKTIVPYKKGAWCSLCTASVSGCFKAWDHAGGLCEVPRNPCRMSCQNHGRLNISTCHCHCPPGYTGRYCQVRCSLQCVHGRFREEECSCVCDIGYGGAQCATKVHFPFHTCDLRIDGDCFMVSSEADTYYRARMKCQRKGGVLAQIKSQKVQDILAFYLGRLETTNEVIDSDFETRNFWIGLTYKTAKDSFRWATGEHQAFTSFAFGQPDNHGFGNCVELQASAAFNWNDQRCKTRNRYICQFAQEHISRWGPGS
# Tests used:
# Experiment in all cases: glycan array binding signal (z-score within array); higher = stronger binding
# Settings in all cases: glycan notation: IUPAC condensed, linker removed
# [1] = target: Fuc(a1-2)Gal
# In short: (§1)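 From the Consortium for Functional Glycomics database, 3228 arrays were curated, keeping only those whose protein sequence was available. Binding is given as a within-array Z-score averaged across arrays sharing a protein sequence and across linkers. Negative Z-scores can be read as non-binding.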
# [2] = target: Fuc(a1-2)Gal(b1-3)GalNAc
# In short: as §1
# [3] = target: Fuc(a1-2)Gal(b1-3)GalNAc(a1-3)[Fuc(a1-2)]Gal(b1-4)Glc
# In short: as §1
# [4] = target: Fuc(a1-2)Gal(b1-3)GalNAc(a1-3)[Fuc(a1-2)]Gal(b1-4)GlcNAc
# In short: as §1
# [5] = target: Fuc(a1-2)Gal(b1-3)GalNAc(b1-3)Gal
# In short: as §1
# [6] = target: Fuc(a1-2)Gal(b1-3)GalNAc(b1-3)Gal(a1-4)Gal(b1-4)Glc
# In short: as §1
# [7] = target: Fuc(a1-2)Gal(b1-3)GalNAc(b1-4)[Neu5Ac(a2-3)]Gal(b1-4)Glc
# In short: as §1
# [8] = target: Fuc(a1-2)Gal(b1-3)GlcNAc
# In short: as §1
# [9] = target: Fuc(a1-2)Gal(b1-3)GlcNAc(b1-2)Man(a1-3)[Fuc(a1-2)Gal(b1-3)GlcNAc(b1-2)Man(a1-6)]Man(b1-4)GlcNAc(b1-4)GlcNAc
# In short: as §1
# [10] = target: Fuc(a1-2)Gal(b1-3)GlcNAc(b1-2)Man(a1-3)[Fuc(a1-2)Gal(b1-3)GlcNAc(b1-2)Man(a1-6)]Man(b1-4)GlcNAc(b1-4)[Fuc(a1-6)]GlcNAc
# In short: as §1
# [11] = target: Fuc(a1-2)Gal(b1-3)GlcNAc(b1-3)Gal(b1-4)Glc
# In short: as §1
# [12] = target: Fuc(a1-2)Gal(b1-3)GlcNAc(b1-3)GalNAc
# In short: as §1
# [13] = target: Fuc(a1-2)Gal(b1-3)GlcNAc(b1-3)[Fuc(a1-2)Gal(b1-3)GlcNAc(b1-6)]GalNAc
# In short: as §1
# [14] = target: Fuc(a1-2)Gal(b1-3)GlcNAc(b1-3)[Gal(b1-4)GlcNAc(b1-6)]Gal(b1-4)Glc
# In short: as §1
# [15] = target: Fuc(a1-2)Gal(b1-3)GlcNAc(b1-3)[Neu5Ac(a2-6)Gal(b1-4)GlcNAc(b1-6)]Gal(b1-4)Glc
# In short: as §1
# [16] = target: Fuc(a1-2)Gal(b1-3)GlcNAc6S
# In short: as §1
# [17] = target: Fuc(a1-2)Gal(b1-3)[Fuc(a1-4)]GlcNAc
# In short: as §1
# [18] = target: Fuc(a1-2)Gal(b1-3)[Fuc(a1-4)]GlcNAc(b1-2)Man(a1-3)[Fuc(a1-2)Gal(b1-3)[Fuc(a1-4)]GlcNAc(b1-2)Man(a1-3)]Man(b1-4)GlcNAc(b1-4)GlcNAc
# In short: as §1
# [19] = target: Fuc(a1-2)Gal(b1-3)[Fuc(a1-4)]GlcNAc(b1-2)Man(a1-3)[Fuc(a1-2)Gal(b1-3)[Fuc(a1-4)]GlcNAc(b1-2)Man(a1-6)]Man(b1-4)GlcNAc(b1-4)[Fuc(a1-6)]GlcNAc(b1-4)[Fuc(a1-6)]GlcNAc
# In short: as §1
# [20] = target: Fuc(a1-2)Gal(b1-3)[Fuc(a1-4)]GlcNAc(b1-3)[Fuc(a1-3)[Gal(b1-4)]GlcNAc(b1-6)]Gal(b1-4)Glc
# In short: as §1
# [21] = target: Fuc(a1-2)Gal(b1-3)[Fuc(a1-4)]GlcNAc(b1-3)[Gal(b1-4)GlcNAc(b1-6)]Gal(b1-4)Glc
# In short: as §1
# [22] = target: Fuc(a1-2)Gal(b1-4)Glc
# In short: as §1
# [23] = target: Fuc(a1-2)Gal(b1-4)Glc6S
# In short: as §1
# [24] = target: Fuc(a1-2)Gal(b1-4)GlcNAc
# In short: as §1
# [25] = target: Fuc(a1-2)Gal(b1-4)GlcNAc(b1-2)Man
# In short: as §1
# [26] = target: Fuc(a1-2)Gal(b1-4)GlcNAc(b1-2)Man(a1-3)[Fuc(a1-2)Gal(b1-4)GlcNAc(b1-2)Man(a1-6)]Man(b1-4)GlcNAc(b1-4)GlcNAc
# In short: as §1
# [27] = target: Fuc(a1-2)Gal(b1-4)GlcNAc(b1-2)Man(a1-3)[Fuc(a1-2)Gal(b1-4)GlcNAc(b1-2)Man(a1-6)]Man(b1-4)GlcNAc(b1-4)[Fuc(a1-6)]GlcNAc
# In short: as §1
# [28] = target: Fuc(a1-2)Gal(b1-4)GlcNAc(b1-2)[Fuc(a1-2)Gal(b1-4)GlcNAc(b1-4)]Man(a1-3)[Fuc(a1-2)Gal(b1-4)GlcNAc(b1-2)Man(a1-6)]Man(b1-4)GlcNAc(b1-4)GlcNAc
# In short: as §1
# [29] = target: Fuc(a1-2)Gal(b1-4)GlcNAc(b1-3)Gal(b1-4)GlcNAc
# In short: as §1
# [30] = target: Fuc(a1-2)Gal(b1-4)GlcNAc(b1-3)Gal(b1-4)GlcNAc(b1-2)Man(a1-3)[Fuc(a1-2)Gal(b1-4)GlcNAc(b1-3)Gal(b1-4)GlcNAc(b1-2)Man(a1-6)]Man(b1-4)GlcNAc(b1-4)GlcNAc
# In short: as §1
binder,measurement,setting,value
B1,glycan array binding signal (z-score),[1],-0.567
same,glycan array binding signal (z-score),[2],0.22
same,glycan array binding signal (z-score),[3],-0.116
same,glycan array binding signal (z-score),[4],-0.489
same,glycan array binding signal (z-score),[5],-0.071
same,glycan array binding signal (z-score),[6],-0.849
same,glycan array binding signal (z-score),[7],-0.605
same,glycan array binding signal (z-score),[8],-0.371
same,glycan array binding signal (z-score),[9],0.583
same,glycan array binding signal (z-score),[10],-0.64
same,glycan array binding signal (z-score),[11],-0.818
same,glycan array binding signal (z-score),[12],-0.519
same,glycan array binding signal (z-score),[13],4.48
same,glycan array binding signal (z-score),[14],2.06
same,glycan array binding signal (z-score),[15],-0.787
same,glycan array binding signal (z-score),[16],-0.214
same,glycan array binding signal (z-score),[17],-0.825
same,glycan array binding signal (z-score),[18],0.851
same,glycan array binding signal (z-score),[19],-0.318
same,glycan array binding signal (z-score),[20],0.626
same,glycan array binding signal (z-score),[21],-0.5
same,glycan array binding signal (z-score),[22],-0.781
same,glycan array binding signal (z-score),[23],-0.03
same,glycan array binding signal (z-score),[24],-0.697
same,glycan array binding signal (z-score),[25],0.267
same,glycan array binding signal (z-score),[26],2.64
same,glycan array binding signal (z-score),[27],-0.272
same,glycan array binding signal (z-score),[28],0.027
same,glycan array binding signal (z-score),[29],-0.855
same,glycan array binding signal (z-score),[30],-0.205
